PubChem BioAssay AID504774 | Drosophila RNAi Screening Center, 2011
Purpose: 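Knock-downs that shift viability of MMS-exposed cells relative to untreated ones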 (primary screen). System: Drosophila Kc167 cells. Knock-down reagent: long dsRNA against Drosophila genes, about 0.25 µg dsRNA per well. Timing: about 6 days: 3 days knock-down, then 3 days with or without MMS. Conditions: methyl methanesulphonate 0.004% (w/v) for 3 days after knock-down. Measurement: 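Viability in wells given MMS, read as ATP luminescence, normalised by quantiles plate by plate and averaged across replicates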. Reading the numbers: mean viability with MMS and viability with MMS: higher = more surviving cells after MMS.
The screen tested about 23,000 reagents; below is an unselected part of those that have a named target and a result. 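Values are quantile-normalised luminescence on an arbitrary scale; higher means more cells surviving MMS.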 Names joined by + are all predicted targets of the reagent. Reagent sequences are not shown.

| gene knocked down | amplicon | mean viability with MMS | viability with MMS, replicate 1 | viability with MMS, replicate 2 |
| --- | --- | --- | --- | --- |
| Sec16 | DRSC19788 | 3.31e6 | 3.78e6 | 3.78e6 |
| Sec16 | DRSC19858 | 3.57e6 | 3.92e6 | 4.16e6 |
| gukh | DRSC14768 | 3.63e6 | 4.10e6 | 4.12e6 |
| gukh | DRSC15806 | 3.58e6 | 4.12e6 | 3.99e6 |
| gukh | DRSC15944 | 3.76e6 | 4.24e6 | 4.21e6 |
| Ptp69D | DRSC11258 | 3.68e6 | 4.26e6 | 4.02e6 |
| pen-2 | DRSC05722 | 3.56e6 | 4.05e6 | 4.01e6 |
| CG3199 | DRSC15467 | 3.41e6 | 3.85e6 | 3.86e6 |
| Src64B | DRSC08700 | 3.65e6 | 4.26e6 | 4.04e6 |
| PIG-Wa | DRSC00728 | 3.59e6 | 4.13e6 | 4.04e6 |
| Polr1E | DRSC14506 | 3.53e6 | 3.78e6 | 4.24e6 |
| Polr1E | DRSC15358 | 3.68e6 | 4.24e6 | 4.06e6 |
| Edc3 | DRSC10620 | 3.85e6 | 4.37e6 | 4.30e6 |
| Grasp65 | DRSC10917 | 3.48e6 | 3.85e6 | 4.02e6 |
| CG18542 + CG32939 | DRSC15342 | 3.72e6 | 4.25e6 | 4.20e6 |
| CG2528 | DRSC03724 | 3.62e6 | 4.16e6 | 4.06e6 |
| CG31278 | DRSC16051 | 3.53e6 | 4.02e6 | 4.00e6 |
| CG14000 + bchs | DRSC02333 | 3.28e6 | 3.76e6 | 3.55e6 |
| Eglp3 | DRSC04293 | 3.69e6 | 4.19e6 | 4.16e6 |
| CG33095 | DRSC14441 | 3.61e6 | 4.04e6 | 4.15e6 |
| CG18269 | DRSC02660 | 3.47e6 | 3.97e6 | 3.90e6 |
| Nf-YB | DRSC02057 | 3.59e6 | 4.06e6 | 4.09e6 |
| CG34357 | DRSC12211 | 3.54e6 | 3.98e6 | 4.05e6 |
| CG34357 | DRSC12238 | 3.27e6 | 3.64e6 | 3.76e6 |
| CG34357 | DRSC12334 | 3.64e6 | 4.00e6 | 4.22e6 |
| CG34357 | DRSC23031 | 3.62e6 | 4.15e6 | 4.06e6 |
| Cyp313a4 | DRSC16627 | 3.47e6 | 3.94e6 | 3.97e6 |
| CG13050 | DRSC09931 | 3.55e6 | 3.98e6 | 4.07e6 |
